Results deposited as PubChem BioAssay AID1259267 (Sanger Institute, 2017).
The whole screen tested 794 reagents; below is an unselected part. 9 of them (1.1%) were called active. 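Viability capped at 1; calls reflect loss of viability from knock-down alone, not synergy with drugs.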 Further read-outs or replicates are left out here. No sequences are given here. Not given: the amount of reagent, the time to read-out.

Test: 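Essential and drug-synergistic knock-downs in GP5D bowel cancer cells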 (primary screen)
System: human GP5D colorectal cancer cells
Reagents: siRNA pool against human genes
Conditions: anchor drugs at low dose: BYL719 1 µM, cetuximab 5 µg/ml, trametinib 10 nM, or DMSO vehicle
Read-out: 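Viability against non-targeting pool, replicate mean: robust z-score for knock-down alone, fraction with DMSO, synergy with BYL719 1 µM, cetuximab 5 µg/ml, trametinib 10 nM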
Reading the numbers: robust z-score, knock-down alone and viability with DMSO: higher = more viable cells; synergy score with trametinib: higher = stronger synthetic lethal synergy with drug
Call rule: 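Active (essential alone) if knock-down without drug gives robust z-score under -3; drug synergy does not count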
Calls: active = essential alone; inactive = not essential

Target gene | robust z-score, knock-down alone | viability with DMSO (fraction of control) | synergy score with trametinib | call
CDK15 | 0.773 | 0.991 | 0.111 | inactive
PIK3C2G | -0.48 | 0.725 | -0.134 | inactive
MAP3K11 | 0.817 | 1 | -0.0318 | inactive
TRIM27 | 0.317 | 0.894 | 0.172 | inactive
SIK3 | 0.817 | 1 | -0.182 | inactive
PRKAR1B | 0.817 | 1 | -0.0122 | inactive
VRK1 | -1.33 | 0.545 | 0.021 | inactive
WIPF1 | -1.49 | 0.511 | -0.0101 | inactive
LATS1 | -0.2 | 0.784 | -0.226 | inactive
DAPK3 | -0.523 | 0.716 | -0.0968 | inactive
EXOSC10 | -0.119 | 0.802 | -0.105 | inactive
RPS6KA2 | -2.16 | 0.369 | 0.00957 | inactive
MAPK9 | 0.817 | 1 | -0.197 | inactive
NUP98 | -3.16 | 0.158 | -0.0475 | active
MAST2 | 0.817 | 1 | -0.197 | inactive
PRKCD | 0.0519 | 0.838 | 0.101 | inactive
MGA | -1.15 | 0.583 | 0.1 | inactive
AMHR2 | 0.287 | 0.888 | -0.0807 | inactive
TSSK3 | 0.0342 | 0.834 | 0.185 | inactive
KSR2 | -0.13 | 0.799 | -0.0725 | inactive
AMER1 | 0.817 | 1 | 0.0608 | inactive
ALPK1 | -0.844 | 0.648 | 0.24 | inactive
CSNK1E | 0.817 | 1 | 0.476 | inactive
EIF2AK4 | 0.817 | 1 | -0.197 | inactive
DCLK3 | -0.224 | 0.779 | 0.0766 | inactive
BMPR1A | 0.183 | 0.866 | 0.245 | inactive
FRK | 0.817 | 1 | -0.197 | inactive
STK17B | 0.817 | 1 | 0.0877 | inactive
COASY | -3.27 | 0.134 | -0.046 | active
MAPK13 | 0.817 | 1 | -0.126 | inactive
STK40 | 0.627 | 0.96 | 0.0763 | inactive
GUCY2C | -0.274 | 0.769 | -0.336 | inactive
CSNK1D | 0.657 | 0.966 | 0.179 | inactive
DCLK2 | 0.356 | 0.902 | 0.0417 | inactive
STK4 | -0.261 | 0.771 | -0.256 | inactive
PRP4K | -0.89 | 0.638 | -0.163 | inactive
CNOT1 | -2.91 | 0.21 | 0.031 | inactive
NRBP1 | 0.817 | 1 | 0.000282 | inactive
DNMT3A | -1.81 | 0.442 | -0.0102 | inactive
PRKCQ | 0.301 | 0.891 | -0.0343 | inactive
CAMKK1 | 0.607 | 0.956 | -0.00298 | inactive
PIP4K2B | 0.422 | 0.916 | 0.136 | inactive
DMPK | 0.521 | 0.937 | -0.0723 | inactive
CDK8 | 0.613 | 0.957 | -0.00929 | inactive
PANK3 | 0.817 | 1 | 0.0259 | inactive
DYRK4 | 0.817 | 1 | 0.0562 | inactive
TTBK2 | -1.59 | 0.491 | -0.00504 | inactive
CDK20 | 0.0826 | 0.844 | -0.0405 | inactive
PRKCSH | 0.633 | 0.961 | -0.228 | inactive
NEK9 | 0.817 | 1 | 0.208 | inactive
